Assay results as given in PubChem BioAssay AID1259354 (Paczesny and Yang Labs, IUPUI and University of Michigan, 2018).
Hit rate of the full screen: of about 78,000 compounds, about 1,800 (2.3%) were called active. The shares of active, inactive and inconclusive entries below differ from those in the screen. Cut-off read from the data, not from the text of the source: active = inhibition above about 30%; inconclusive = mostly about 10% to 28%; inactive = weaker than that.

Protein sequences, listed by entry. Tags and fused reporters are not part of them. Lines headed by an entry give the natural chain unless they say otherwise; changes in a name come on top.
UniProt Q01638: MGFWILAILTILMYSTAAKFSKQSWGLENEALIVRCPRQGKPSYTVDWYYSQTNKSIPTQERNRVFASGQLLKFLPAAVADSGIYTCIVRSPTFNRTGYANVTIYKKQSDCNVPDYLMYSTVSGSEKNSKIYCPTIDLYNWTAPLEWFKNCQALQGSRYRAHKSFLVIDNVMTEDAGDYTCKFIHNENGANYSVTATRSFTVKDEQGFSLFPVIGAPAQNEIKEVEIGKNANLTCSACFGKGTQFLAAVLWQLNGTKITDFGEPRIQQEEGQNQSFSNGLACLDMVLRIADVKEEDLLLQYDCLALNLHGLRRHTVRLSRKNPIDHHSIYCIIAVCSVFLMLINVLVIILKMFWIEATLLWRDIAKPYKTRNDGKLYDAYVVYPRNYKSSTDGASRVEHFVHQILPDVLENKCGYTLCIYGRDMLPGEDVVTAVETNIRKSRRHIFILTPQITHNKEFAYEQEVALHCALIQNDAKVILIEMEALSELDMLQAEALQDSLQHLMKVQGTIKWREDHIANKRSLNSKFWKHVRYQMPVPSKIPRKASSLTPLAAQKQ

target: Interleukin-1 receptor-like 1 (Homo sapiens) (UniProt Q01638); assay: blocks human ST2 binding to IL-33, primary screen, biochemical, AlphaLISA (AID 1259354); conditions: AlphaLISA ST2-Fc/biotin-IL-33 interaction, 1 h; at 17 µM, active compounds read high

| Compound | inhibition |
| --- | --- |
| CCSc1nnc(NC(=O)CSc2cn(CC)c3ccccc23)s1 | inactive |
| Nc1ccc(Cl)cc1-n1nc(-c2ccccc2)c2ccccc2c1=O | inconclusive: 17% |
| Cc1cc(C)cc(NS(=O)(=O)c2ccc3c(c2)CCN3C(=O)C2CC2)c1 | inconclusive: 17% |
| Cc1ccc(NC(=O)CC(=O)N2CCC3(CCCN(C)CC3)CC2)cc1 | inconclusive: 18% |
| CC(=O)Nc1cccc(NC(=O)c2ccc(F)cc2)c1 | inactive |
| O=C1NCC2(CCCN(C(=O)COCc3nc4ccc(F)cc4[nH]3)C2)O1 (configuration not stated) | inconclusive: 23% |
| COc1ccc(Nc2nc(N)nc(CSc3nc(C)cc(C)n3)n2)cc1 | inconclusive: 10% |
| COc1ccc(OC)c(NC(=O)c2cc3cc4ccc(Cl)cc4nc3o2)c1 | inconclusive: 16% |
| O=C(O)c1cc(N2CCC(N3CCCC(C(=O)NC4CC4)C3)CC2)nc2ccccc12 (configuration not stated) | inactive |
| Cc1cccc(OCc2nc(C#N)c(NCc3ccc(F)cc3)o2)c1 | inconclusive: 27% |
| CC(C)Cc1nc([C@H]2CCC(=O)N2)n(-c2ccc3c(c2)OCCO3)n1 | inactive |
| Cc1cc(C)n2c(Br)c(CN3CCC4(CC3)OCCO4)nc2n1 | inactive |
| COC(=O)Cn1c(=O)c2c(nc3n2CCN3c2ccc(C)c(C)c2)n(C)c1=O | inconclusive: 13% |
| O=C1/C(=C/c2ccc3c(c2)OCO3)N=C2CCCCCN12 | inconclusive: 27% |
| CC(=O)/C=C/c1ccc(NC2CC(=O)OC2/C=C/C(C)O)cc1 (configuration not stated) | inconclusive: 16% |
| O=C(CCc1nc(-c2ccccc2F)no1)NCc1cccnc1 | inconclusive: 21% |
| CCOCCn1nc(C)cc1C(=O)N1CCC2(CN(C)C(=O)O2)C1 (configuration not stated) | inactive |
| CCc1nnc2c3cnn(-c4ccccc4)c3ncn12 | inconclusive: 13% |
| O=[N+]([O-])c1ccc(-c2nc(NCCN3CCOCC3)c3ccccc3n2)cc1 | inconclusive: 12% |
| Cc1ccc(N2NC(=O)/C(=C/c3ccccc3OCc3ccccc3)C2=O)cc1Cl | inconclusive: 13% |
| COc1ccccc1CN(Cc1ccc2[nH]ccc2c1)C1CC1 | inconclusive: 12% |
| CCCCNC(=O)CCC1N=C2c3ccccc3N=C(SCC#N)N2C1=O (configuration not stated) | inconclusive: 10% |
| CC(C)Oc1cccc(C(=O)C2CCCN(Cc3c[nH]c(=O)[nH]c3=O)C2)c1 (configuration not stated) | inactive |
| Cc1nn(C(=O)c2ccco2)c(-c2ccccc2)c1Sc1ccccc1 | inconclusive: 11% |
| CCOc1ccc(S(=O)(=O)NCCO)cc1 | inactive |
| COc1cccc(-c2ncnn2-c2sc3c(c2C#N)CCCCC3)c1 | active: 65% |
| O=C(c1ccc(S(=O)(=O)N2CCCC2)cc1)N1CCN=C1SCc1ccccc1Cl | inactive |

Taken from the results shown (seven entries):

| Compound | inhibition |
| --- | --- |
| Cc1cc(C)cc(NS(=O)(=O)c2ccc3c(c2)CCN3C(=O)C2CC2)c1 | inconclusive: 17% |
| Cc1ccc(NC(=O)CC(=O)N2CCC3(CCCN(C)CC3)CC2)cc1 | inconclusive: 18% |
| CC(=O)Nc1cccc(NC(=O)c2ccc(F)cc2)c1 | inactive |
| O=C1NCC2(CCCN(C(=O)COCc3nc4ccc(F)cc4[nH]3)C2)O1 (configuration not stated) | inconclusive: 23% |
| COc1ccc(Nc2nc(N)nc(CSc3nc(C)cc(C)n3)n2)cc1 | inconclusive: 10% |
| COc1ccc(OC)c(NC(=O)c2cc3cc4ccc(Cl)cc4nc3o2)c1 | inconclusive: 16% |
| O=C(O)c1cc(N2CCC(N3CCCC(C(=O)NC4CC4)C3)CC2)nc2ccccc12 (configuration not stated) | inactive |
